# Data taken from PMC11062894, “Protein-based bandpass filters for controlling cellular signaling with chemical inputs” (Nature Chemical Biology, 2023).
# Several values for one entry are separate records, joined by “and”; a condition that tells them apart may be missing. Equal entries are not always repeated. The source gives many values for each of these; only a part stands here.
# System: GEMS receptors with CBPvene (Bcl2–LD3 and Bcl2high variants), STAT3-driven SEAP in HEK293T cells
# Test: GEMS SEAP reporter assay, CBPvene (Bcl2high, LD3-v and Bcl2-v variants) with venetoclax
# Assay type: cell-based
# [1] = Supp Fig 10a, Bcl2-v1, venetoclax 1 nM
# [2] = Supp Fig 10a, Bcl2-v1, venetoclax 3.16 nM
# [3] = Supp Fig 10a, Bcl2-v1, venetoclax 10 nM
# [4] = Supp Fig 10a, Bcl2-v1, venetoclax 31.6 nM
# [5] = Supp Fig 10a, Bcl2-v1, venetoclax 100 nM
# [6] = Supp Fig 10a, Bcl2-v2, venetoclax 1 nM
# [7] = Supp Fig 10a, Bcl2-v2, venetoclax 3.16 nM
# [8] = Supp Fig 10a, Bcl2-v2, venetoclax 10 nM
# [9] = Supp Fig 10a, Bcl2-v2, venetoclax 31.6 nM
# [10] = Supp Fig 10a, Bcl2-v2, venetoclax 100 nM
# [11] = Supp Fig 10a, Bcl2-v3, venetoclax 1 nM
# [12] = Supp Fig 10a, Bcl2-v3, venetoclax 3.16 nM
# [13] = Supp Fig 10a, Bcl2-v3, venetoclax 10 nM
# [14] = Supp Fig 10a, Bcl2-v3, venetoclax 31.6 nM
# [15] = Supp Fig 10a, Bcl2-v3, venetoclax 100 nM
# [16] = Supp Fig 10a, Bcl2-v4, venetoclax 1 nM
# [17] = Supp Fig 10a, Bcl2-v4, venetoclax 3.16 nM
# [18] = Supp Fig 10a, Bcl2-v4, venetoclax 10 nM
# [19] = Supp Fig 10a, Bcl2-v4, venetoclax 31.6 nM
# [20] = Supp Fig 10a, Bcl2-v4, venetoclax 100 nM
# [21] = Supp Fig 10a, Bcl2-v5, venetoclax 1 nM
# [22] = Supp Fig 10a, Bcl2-v5, venetoclax 3.16 nM
# [23] = Supp Fig 10a, Bcl2-v5, venetoclax 10 nM
# [24] = Supp Fig 10a, Bcl2-v5, venetoclax 31.6 nM
# [25] = Supp Fig 10a, Bcl2-v5, venetoclax 100 nM
# [26] = Supp Fig 10a, Bcl2-v6, venetoclax 1 nM
# [27] = Supp Fig 10a, Bcl2-v6, venetoclax 3.16 nM
# [28] = Supp Fig 10a, Bcl2-v6, venetoclax 10 nM
# [29] = Supp Fig 10a, Bcl2-v6, venetoclax 31.6 nM
# [30] = Supp Fig 10a, Bcl2-v6, venetoclax 100 nM
# [31] = Supp Fig 10a, Bcl2, venetoclax 1 nM
# [32] = Supp Fig 10a, Bcl2, venetoclax 3.16 nM
# [33] = Supp Fig 10a, Bcl2, venetoclax 10 nM
# [34] = Supp Fig 10a, Bcl2, venetoclax 31.6 nM
# [35] = Supp Fig 10a, Bcl2, venetoclax 100 nM
# [36] = Supp Fig 10c, Bcl2-v1, venetoclax 10 nM
# [37] = Supp Fig 10c, Bcl2-v1, venetoclax 31.6 nM
# [38] = Supp Fig 10c, Bcl2-v1, venetoclax 100 nM
# [39] = Supp Fig 10c, Bcl2-v1, venetoclax 316 nM
# [40] = Supp Fig 10c, Bcl2-v1, venetoclax 1000 nM
# [41] = Supp Fig 10c, Bcl2-v1, venetoclax 3160 nM
# [42] = Supp Fig 10c, Bcl2-v1, venetoclax 10000 nM
# [43] = Supp Fig 10c, Bcl2-v2, venetoclax 10 nM
# [44] = Supp Fig 10c, Bcl2-v2, venetoclax 31.6 nM
# [45] = Supp Fig 10c, Bcl2-v2, venetoclax 100 nM
# [46] = Supp Fig 10c, Bcl2-v2, venetoclax 316 nM
# [47] = Supp Fig 10c, Bcl2-v2, venetoclax 1000 nM
# [48] = Supp Fig 10c, Bcl2-v2, venetoclax 3160 nM
# [49] = Supp Fig 10c, Bcl2-v2, venetoclax 10000 nM
# [50] = Supp Fig 10c, Bcl2-v3, venetoclax 10 nM
# [51] = Supp Fig 10c, Bcl2-v3, venetoclax 31.6 nM
smiles,measurement,setting,value
CC1(C)CCC(CN2CCN(c3ccc(C(=O)NS(=O)(=O)c4ccc(NCC5CCOCC5)c([N+](=O)[O-])c4)c(Oc4cnc5[nH]ccc5c4)c3)CC2)=C(c2ccc(Cl)cc2)C1 [Venetoclax],Raw data Figure 5c,"CBPVene-v5, Venetoclax 100 nM",341.722 and 335.341
same,Raw data Figure 5f,"CBPVene-v5, Venetoclax 100 nM",106.556 and 113.538
same,Raw data Figure 5f,"CBPVene-v5-Bcl2v2, Venetoclax 100 nM",149.797 and 156.012 and 191.601
same,SEAP,[1],21.6044
same,SEAP normalized (max=100),[1],92.7765
same,SEAP,[2],23.2865
same,SEAP normalized (max=100),[2],100
same,SEAP,[3],16.0345
same,SEAP normalized (max=100),[3],68.8573
same,SEAP,[4],18.9926
same,SEAP normalized (max=100),[4],81.5605
same,SEAP,[5],20.3514
same,SEAP normalized (max=100),[5],87.3956
same,SEAP,[6],10.2874
same,SEAP normalized (max=100),[6],30.7964
same,SEAP,[7],13.9068
same,SEAP normalized (max=100),[7],41.6315
same,SEAP,[8],14.5592
same,SEAP normalized (max=100),[8],43.5847
same,SEAP,[9],22.7645
same,SEAP normalized (max=100),[9],68.148
same,SEAP,[10],24.4264
same,SEAP normalized (max=100),[10],73.1231
same,SEAP,[11],27.6943
same,SEAP normalized (max=100),[11],78.7749
same,SEAP,[12],29.5268
same,SEAP normalized (max=100),[12],83.9873
same,SEAP,[13],31.648
same,SEAP normalized (max=100),[13],90.0208
same,SEAP,[14],35.1563
same,SEAP normalized (max=100),[14],100
same,SEAP,[15],29.621
same,SEAP normalized (max=100),[15],84.2551
same,SEAP,[16],41.8831
same,SEAP normalized (max=100),[16],91.7378
same,SEAP,[17],41.0528
same,SEAP normalized (max=100),[17],89.9193
same,SEAP,[18],37.2435
same,SEAP normalized (max=100),[18],81.5757
same,SEAP,[19],36.4556
same,SEAP normalized (max=100),[19],79.8498
same,SEAP,[20],22.5432
same,SEAP normalized (max=100),[20],49.3771
same,SEAP,[21],39.1594
same,SEAP normalized (max=100),[21],100
same,SEAP,[22],39.145
same,SEAP normalized (max=100),[22],99.9632
same,SEAP,[23],24.5911
same,SEAP normalized (max=100),[23],62.7975
same,SEAP,[24],31.7054
same,SEAP normalized (max=100),[24],80.9649
same,SEAP,[25],21.977
same,SEAP normalized (max=100),[25],56.1219
same,SEAP,[26],35.1249
same,SEAP normalized (max=100),[26],83.9201
same,SEAP,[27],33.3789
same,SEAP normalized (max=100),[27],79.7485
same,SEAP,[28],30.0268
same,SEAP normalized (max=100),[28],71.7397
same,SEAP,[29],32.915
same,SEAP normalized (max=100),[29],78.6401
same,SEAP,[30],29.8264
same,SEAP normalized (max=100),[30],71.261
same,SEAP,[31],29.2584
same,SEAP normalized (max=100),[31],14.2012
same,SEAP,[32],31.4339
same,SEAP normalized (max=100),[32],15.2572
same,SEAP,[33],33.1302
same,SEAP normalized (max=100),[33],16.0805
same,SEAP,[34],57.2981
same,SEAP normalized (max=100),[34],27.811
same,SEAP,[35],119.065
same,SEAP normalized (max=100),[35],57.7909
same,SEAP,[36],21.4847
same,SEAP normalized (max=100),[36],82.2419
same,SEAP,[37],15.0338
same,SEAP normalized (max=100),[37],57.5484
same,SEAP,[38],15.6772
same,SEAP normalized (max=100),[38],60.0112
same,SEAP,[39],10.7127
same,SEAP normalized (max=100),[39],41.0075
same,SEAP,[40],9.643
same,SEAP normalized (max=100),[40],36.913
same,SEAP,[41],7.627
same,SEAP normalized (max=100),[41],29.1973
same,SEAP,[42],5.427
same,SEAP normalized (max=100),[42],20.776
same,SEAP,[43],52.1135
same,SEAP normalized (max=100),[43],47.0093
same,SEAP,[44],62.3409
same,SEAP normalized (max=100),[44],56.235
same,SEAP,[45],110.858
same,SEAP normalized (max=100),[45],100
same,SEAP,[46],52.4245
same,SEAP normalized (max=100),[46],47.2898
same,SEAP,[47],36.1104
same,SEAP normalized (max=100),[47],32.5736
same,SEAP,[48],6.785
same,SEAP normalized (max=100),[48],6.121
same,SEAP,[49],7.401
same,SEAP normalized (max=100),[49],6.676
same,SEAP,[50],37.2138
same,SEAP normalized (max=100),[50],100
same,SEAP,[51],35.7018
same,SEAP normalized (max=100),[51],95.9371
